Reference: the supplement of paper PMC12067093, “Discovery and optimisation of a covalent ligand for TRIM25 and its application to targeted protein ubiquitination” (Chemical Science, 2025)
This is one part of the list.

Amino acid sequences for entries named in this document (tags omitted). A change or cut given only in a name is not applied to a line headed by its entry.
UniProt Q9BUB5: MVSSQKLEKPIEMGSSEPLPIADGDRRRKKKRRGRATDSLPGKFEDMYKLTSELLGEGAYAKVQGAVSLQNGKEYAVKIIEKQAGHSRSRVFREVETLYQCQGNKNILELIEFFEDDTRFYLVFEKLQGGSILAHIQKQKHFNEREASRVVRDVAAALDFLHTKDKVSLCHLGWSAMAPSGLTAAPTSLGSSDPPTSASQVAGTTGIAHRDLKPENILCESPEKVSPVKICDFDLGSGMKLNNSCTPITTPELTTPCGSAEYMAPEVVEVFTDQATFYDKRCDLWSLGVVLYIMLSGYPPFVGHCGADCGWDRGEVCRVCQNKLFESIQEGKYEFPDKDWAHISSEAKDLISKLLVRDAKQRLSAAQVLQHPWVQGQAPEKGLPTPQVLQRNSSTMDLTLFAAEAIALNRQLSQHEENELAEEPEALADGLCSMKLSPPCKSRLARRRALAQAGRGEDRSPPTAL
UniProt Q7RTP6, whole entry, looked up: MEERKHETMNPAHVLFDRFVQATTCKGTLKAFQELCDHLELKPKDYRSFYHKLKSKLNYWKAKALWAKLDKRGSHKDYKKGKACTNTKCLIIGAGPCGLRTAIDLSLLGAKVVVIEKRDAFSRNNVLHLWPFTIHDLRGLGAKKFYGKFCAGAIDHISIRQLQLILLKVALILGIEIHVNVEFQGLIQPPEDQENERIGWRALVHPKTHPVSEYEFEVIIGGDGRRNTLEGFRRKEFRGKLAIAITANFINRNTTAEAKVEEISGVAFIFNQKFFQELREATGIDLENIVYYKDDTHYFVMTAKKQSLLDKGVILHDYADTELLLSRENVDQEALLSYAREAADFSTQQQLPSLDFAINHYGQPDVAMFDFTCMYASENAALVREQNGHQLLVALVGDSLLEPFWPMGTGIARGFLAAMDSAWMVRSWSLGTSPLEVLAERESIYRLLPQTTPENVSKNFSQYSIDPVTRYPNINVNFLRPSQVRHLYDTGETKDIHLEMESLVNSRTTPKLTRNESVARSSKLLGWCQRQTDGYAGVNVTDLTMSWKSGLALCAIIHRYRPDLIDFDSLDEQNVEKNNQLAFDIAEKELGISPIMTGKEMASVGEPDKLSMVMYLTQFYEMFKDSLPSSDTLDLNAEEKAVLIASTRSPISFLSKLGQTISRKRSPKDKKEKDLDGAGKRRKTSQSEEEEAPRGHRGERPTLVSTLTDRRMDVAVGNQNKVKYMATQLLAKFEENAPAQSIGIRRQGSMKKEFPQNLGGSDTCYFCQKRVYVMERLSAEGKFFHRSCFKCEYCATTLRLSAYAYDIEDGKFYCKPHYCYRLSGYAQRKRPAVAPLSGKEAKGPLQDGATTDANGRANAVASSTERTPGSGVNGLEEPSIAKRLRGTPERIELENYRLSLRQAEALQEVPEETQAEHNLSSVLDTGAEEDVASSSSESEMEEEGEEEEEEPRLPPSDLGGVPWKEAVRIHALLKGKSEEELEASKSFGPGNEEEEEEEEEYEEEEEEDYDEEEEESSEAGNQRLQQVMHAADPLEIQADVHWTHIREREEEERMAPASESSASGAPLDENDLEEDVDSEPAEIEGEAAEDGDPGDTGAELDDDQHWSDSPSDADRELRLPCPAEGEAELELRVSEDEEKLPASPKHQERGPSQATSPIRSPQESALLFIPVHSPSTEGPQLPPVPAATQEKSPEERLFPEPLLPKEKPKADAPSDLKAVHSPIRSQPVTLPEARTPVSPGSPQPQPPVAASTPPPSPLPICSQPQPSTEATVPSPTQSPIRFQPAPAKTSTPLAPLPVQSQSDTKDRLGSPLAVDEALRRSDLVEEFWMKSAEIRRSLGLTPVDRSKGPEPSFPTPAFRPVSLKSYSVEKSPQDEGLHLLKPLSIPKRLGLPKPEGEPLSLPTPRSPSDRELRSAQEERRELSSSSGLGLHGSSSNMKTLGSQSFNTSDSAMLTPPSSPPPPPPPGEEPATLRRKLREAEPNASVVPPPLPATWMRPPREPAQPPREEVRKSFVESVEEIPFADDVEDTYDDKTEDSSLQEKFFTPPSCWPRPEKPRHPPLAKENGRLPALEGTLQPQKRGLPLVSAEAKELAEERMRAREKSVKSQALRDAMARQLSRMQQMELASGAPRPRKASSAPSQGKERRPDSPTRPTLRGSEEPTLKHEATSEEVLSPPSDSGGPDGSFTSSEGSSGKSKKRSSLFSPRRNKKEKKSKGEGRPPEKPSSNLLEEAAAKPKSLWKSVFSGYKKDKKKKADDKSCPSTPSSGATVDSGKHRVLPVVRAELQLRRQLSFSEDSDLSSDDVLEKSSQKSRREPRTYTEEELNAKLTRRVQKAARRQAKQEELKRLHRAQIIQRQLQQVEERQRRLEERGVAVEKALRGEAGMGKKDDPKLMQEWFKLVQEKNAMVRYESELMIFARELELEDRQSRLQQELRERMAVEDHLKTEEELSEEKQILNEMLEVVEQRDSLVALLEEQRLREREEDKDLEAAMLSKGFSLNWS
UniProt Q9NXC5: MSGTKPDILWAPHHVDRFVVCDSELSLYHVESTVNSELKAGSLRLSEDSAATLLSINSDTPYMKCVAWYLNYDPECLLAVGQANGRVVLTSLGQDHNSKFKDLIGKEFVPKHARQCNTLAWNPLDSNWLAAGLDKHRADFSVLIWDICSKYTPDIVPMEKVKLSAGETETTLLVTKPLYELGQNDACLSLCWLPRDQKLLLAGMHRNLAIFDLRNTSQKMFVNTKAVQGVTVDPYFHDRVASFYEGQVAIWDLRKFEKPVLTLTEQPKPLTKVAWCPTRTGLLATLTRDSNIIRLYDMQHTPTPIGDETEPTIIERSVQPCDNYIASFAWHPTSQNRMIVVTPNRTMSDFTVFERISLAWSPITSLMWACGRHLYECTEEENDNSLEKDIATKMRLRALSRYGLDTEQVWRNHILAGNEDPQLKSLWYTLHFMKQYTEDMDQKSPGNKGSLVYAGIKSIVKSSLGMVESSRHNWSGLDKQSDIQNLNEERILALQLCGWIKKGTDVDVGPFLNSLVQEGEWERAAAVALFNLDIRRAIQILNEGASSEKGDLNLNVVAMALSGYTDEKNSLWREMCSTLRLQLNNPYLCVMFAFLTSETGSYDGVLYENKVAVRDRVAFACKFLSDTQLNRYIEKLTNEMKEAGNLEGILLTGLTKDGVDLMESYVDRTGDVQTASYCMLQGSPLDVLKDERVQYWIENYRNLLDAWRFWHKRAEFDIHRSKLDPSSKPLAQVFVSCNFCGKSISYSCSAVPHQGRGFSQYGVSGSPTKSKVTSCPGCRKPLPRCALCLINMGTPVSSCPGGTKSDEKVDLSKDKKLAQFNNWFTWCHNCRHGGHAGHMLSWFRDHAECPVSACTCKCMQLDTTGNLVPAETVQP
UniProt Q14168: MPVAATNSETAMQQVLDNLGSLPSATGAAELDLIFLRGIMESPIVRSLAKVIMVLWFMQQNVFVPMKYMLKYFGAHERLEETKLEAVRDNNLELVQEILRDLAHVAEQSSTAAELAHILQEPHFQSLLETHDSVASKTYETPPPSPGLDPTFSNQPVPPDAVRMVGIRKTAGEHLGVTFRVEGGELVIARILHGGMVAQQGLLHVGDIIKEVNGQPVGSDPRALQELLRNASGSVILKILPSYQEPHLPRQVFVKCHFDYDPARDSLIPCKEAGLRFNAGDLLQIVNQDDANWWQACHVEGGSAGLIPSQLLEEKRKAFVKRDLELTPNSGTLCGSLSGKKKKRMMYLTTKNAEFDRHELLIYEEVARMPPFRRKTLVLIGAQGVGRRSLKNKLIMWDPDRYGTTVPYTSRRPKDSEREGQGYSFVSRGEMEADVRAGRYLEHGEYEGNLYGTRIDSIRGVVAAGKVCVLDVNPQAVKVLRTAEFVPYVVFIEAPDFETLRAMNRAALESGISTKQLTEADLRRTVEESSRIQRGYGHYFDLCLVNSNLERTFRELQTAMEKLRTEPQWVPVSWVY
UniProt O95396: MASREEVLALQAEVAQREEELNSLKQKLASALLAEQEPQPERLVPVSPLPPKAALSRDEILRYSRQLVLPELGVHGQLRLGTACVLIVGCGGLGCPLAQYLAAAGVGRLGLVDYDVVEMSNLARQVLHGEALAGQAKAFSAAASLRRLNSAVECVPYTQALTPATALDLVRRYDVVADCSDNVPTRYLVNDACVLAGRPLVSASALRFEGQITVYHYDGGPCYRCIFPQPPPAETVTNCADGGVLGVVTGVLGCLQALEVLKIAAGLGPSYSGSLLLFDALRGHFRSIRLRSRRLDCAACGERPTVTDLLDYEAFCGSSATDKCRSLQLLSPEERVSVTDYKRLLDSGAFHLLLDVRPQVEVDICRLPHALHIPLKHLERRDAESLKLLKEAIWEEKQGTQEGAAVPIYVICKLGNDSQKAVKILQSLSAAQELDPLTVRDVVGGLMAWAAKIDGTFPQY
UniProt Q14149: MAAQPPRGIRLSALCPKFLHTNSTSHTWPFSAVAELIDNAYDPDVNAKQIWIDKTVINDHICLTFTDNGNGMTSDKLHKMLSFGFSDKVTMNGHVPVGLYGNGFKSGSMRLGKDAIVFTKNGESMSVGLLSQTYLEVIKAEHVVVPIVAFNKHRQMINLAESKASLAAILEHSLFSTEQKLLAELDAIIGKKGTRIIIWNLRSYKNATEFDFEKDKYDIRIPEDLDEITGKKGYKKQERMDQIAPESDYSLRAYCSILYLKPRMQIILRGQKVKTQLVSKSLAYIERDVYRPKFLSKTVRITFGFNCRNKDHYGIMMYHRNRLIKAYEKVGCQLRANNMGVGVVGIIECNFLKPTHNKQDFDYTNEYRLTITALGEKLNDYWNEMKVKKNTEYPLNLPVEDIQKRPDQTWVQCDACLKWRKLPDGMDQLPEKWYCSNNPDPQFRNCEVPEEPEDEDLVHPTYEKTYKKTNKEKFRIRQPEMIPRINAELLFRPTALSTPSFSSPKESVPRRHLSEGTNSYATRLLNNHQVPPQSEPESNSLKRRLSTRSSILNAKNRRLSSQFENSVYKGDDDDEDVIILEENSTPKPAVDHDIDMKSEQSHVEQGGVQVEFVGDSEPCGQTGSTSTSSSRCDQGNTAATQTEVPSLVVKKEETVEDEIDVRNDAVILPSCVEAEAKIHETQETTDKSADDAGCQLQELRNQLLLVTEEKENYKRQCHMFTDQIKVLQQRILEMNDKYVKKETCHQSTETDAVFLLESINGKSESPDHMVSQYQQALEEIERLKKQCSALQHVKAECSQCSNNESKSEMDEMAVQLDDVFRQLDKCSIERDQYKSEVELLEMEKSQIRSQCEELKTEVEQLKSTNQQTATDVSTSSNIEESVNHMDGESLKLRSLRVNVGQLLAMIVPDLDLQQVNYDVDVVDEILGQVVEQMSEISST
UniProt Q6WCQ1: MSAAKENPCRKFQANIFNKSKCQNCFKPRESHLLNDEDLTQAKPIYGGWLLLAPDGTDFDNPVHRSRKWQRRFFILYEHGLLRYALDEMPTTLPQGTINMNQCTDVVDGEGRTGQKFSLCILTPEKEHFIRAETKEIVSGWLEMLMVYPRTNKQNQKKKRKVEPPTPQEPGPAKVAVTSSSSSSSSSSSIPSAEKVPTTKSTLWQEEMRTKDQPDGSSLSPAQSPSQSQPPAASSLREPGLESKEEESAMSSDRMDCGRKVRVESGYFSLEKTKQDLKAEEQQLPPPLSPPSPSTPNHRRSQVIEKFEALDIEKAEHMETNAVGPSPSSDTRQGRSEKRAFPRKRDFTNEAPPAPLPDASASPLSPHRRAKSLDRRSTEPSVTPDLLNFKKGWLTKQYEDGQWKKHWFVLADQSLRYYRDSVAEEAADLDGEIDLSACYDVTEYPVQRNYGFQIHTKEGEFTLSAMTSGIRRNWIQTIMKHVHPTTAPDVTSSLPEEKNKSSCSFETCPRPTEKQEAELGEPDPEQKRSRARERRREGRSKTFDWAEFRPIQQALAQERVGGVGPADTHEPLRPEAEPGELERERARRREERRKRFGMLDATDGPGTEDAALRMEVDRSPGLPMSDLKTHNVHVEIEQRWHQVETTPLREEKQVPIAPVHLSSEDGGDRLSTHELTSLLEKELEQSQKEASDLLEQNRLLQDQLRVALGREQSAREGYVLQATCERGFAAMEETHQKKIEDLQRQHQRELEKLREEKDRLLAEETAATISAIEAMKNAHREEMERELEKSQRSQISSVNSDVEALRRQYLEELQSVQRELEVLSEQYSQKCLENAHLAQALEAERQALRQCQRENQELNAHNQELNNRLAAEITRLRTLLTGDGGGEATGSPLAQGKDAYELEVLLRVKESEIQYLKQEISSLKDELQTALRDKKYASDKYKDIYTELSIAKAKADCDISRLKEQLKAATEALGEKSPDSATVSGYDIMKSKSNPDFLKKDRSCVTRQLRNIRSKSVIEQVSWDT
UniProt O14880: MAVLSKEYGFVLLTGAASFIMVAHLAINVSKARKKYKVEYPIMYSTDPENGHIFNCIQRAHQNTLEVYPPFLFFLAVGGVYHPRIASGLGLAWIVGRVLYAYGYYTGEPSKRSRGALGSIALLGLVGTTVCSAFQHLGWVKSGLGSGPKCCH

Compound: CC1Cc2ccccc2N1C(=O)C1CCCN(C1)C(=O)CCl (mixture of isomers) [TRIM25 ligand 11 (diastereomer mixture)]
Assay: probe-labelled cysteine peptide fold change vs DMSO (competition) (log2 fold change); higher = less target engagement (more negative = stronger competition)
Conditions: THP-1, incubation time: 4 h
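Also: competitive chemoproteomic profiling in live THP-1 cells with an iodoacetamide desthiobiotin (IA-DTB) probe, comparing probe-labelled peptide intensities in compound-treated cells against DMSO-treated controls.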

Target	probe-labelled cysteine peptide fold change (10 µM)	probe-labelled cysteine peptide fold change (50 µM)
MKNK1_Q9BUB5_219_DLKPENILCESPEK (UniProt Q9BUB5)	-0.0739	-0.134
MRPL3_P09001_78_LCPLKDEPWPIHPWEPGSFR (UniProt P09001)	-0.275	0.0373
MRPL37_Q9BZE1_366_VFHFLVFQLNTTDLDCNEGVK (UniProt Q9BZE1)	-0.305	-0.0534
MPP1_Q00013_454_KLQEAFDQACSSPQWVPVSWVY (UniProt Q00013)	-0.0123	-0.17
MICAL3_Q7RTP6_25_FVQATTCK (UniProt Q7RTP6)	0.129	0.225
MIOS_Q9NXC5_854_DHAECPVSACTCK (UniProt Q9NXC5)	0.203	0.0703
MRM3_Q9HC36_235_SAAGAGCSK (UniProt Q9HC36)	-0.0242	-0.0628
MMS19_Q96T76_386_ACDSVTSNVLPLLLEQFHK (UniProt Q96T76)	0.0546	0.0807
MRPL37_Q9BZE1_104_DQACYIFHHR (UniProt Q9BZE1)	0.0711	0.119
MKRN1_Q9UHC7_259_SCIEAHEK (UniProt Q9UHC7)	-0.021	-0.0543
MPP2_Q14168_543_GYGHYFDLCLVNSNLER (UniProt Q14168)	0.0309	0.0351
MOCS3_O95396_179_RYDVVADCSDNVPTR (UniProt O95396)	0.00844	0.00588
MORC3_Q14149_413+416_RPDQTWVQCDACLK (UniProt Q14149)	-0.0543	-0.0113
MPRIP_Q6WCQ1_724_EGYVLQATCER (UniProt Q6WCQ1)	0.0872	0.027
MORC3_Q14149_671_NDAVILPSCVEAEAK (UniProt Q14149)	0.0847	-0.059
MKLN1_Q9UL63_469_CLYVFGGQR (UniProt Q9UL63)	0.0276	0.0158
MPRIP_Q6WCQ1_831_CLENAHLAQALEAER (UniProt Q6WCQ1)	-0.0448	-0.0915
MGST3_O14880_56_VEYPIMYSTDPENGHIFNCIQR (UniProt O14880)	-0.116	-0.173
MOCS3_O95396_179_YDVVADCSDNVPTR (UniProt O95396)	0.229	0.144
MND1_Q9BWT6_147_DCDPQVVEEIR (UniProt Q9BWT6)	-0.111	-0.171
MRPL39_Q9NYK5_133_DCDPGEVNK (UniProt Q9NYK5)	-0.0874	-0.21
MILR1_Q7Z6M3_38_TNEFPSPCLDSK (UniProt Q7Z6M3)	-0.148	-0.275

Quoted from the results shown (2 entries):
Target	probe-labelled cysteine peptide fold change (10 µM)	probe-labelled cysteine peptide fold change (50 µM)
MICAL3_Q7RTP6_25_FVQATTCK (UniProt Q7RTP6)	0.129	0.225
MIOS_Q9NXC5_854_DHAECPVSACTCK (UniProt Q9NXC5)	0.203	0.0703
